The source of these data is publication PMC5379069, “A Pseudomonas T6SS effector recruits PQS-containing outer membrane vesicles for iron acquisition” (Nature Communications, 2017).

No constants are given. Whether binding was seen depends on the method and setting. Binding seen in cells or lysates may run through a third protein. A yes stands for co-enrichment or nearness to the bait. Other partners may have been found.

The target in the assay is GST-TseF (Pseudomonas aeruginosa PAO1) (UniProt Q9I1A5). Description: affinity purification with mass spectrometry; 40 μg purified GST-TseF (or GST) incubated with cleared P. aeruginosa cell lysates (PBS, 5 mM MgCl2, 1% Triton X-100) at 4 °C overnight; glutathione-Sepharose beads; washed five times with TEN buffer (300 mM NaCl); SDS-PAGE, silver staining, bands identified by MALDI mass spectrometry; lysates of wild type and of mutants lacking H3-T6SS or TseF; only the target purified.

B1: FptA, the Fe(III)-pyochelin receptor (receptor, UniProt P42512 39-720)
chain: DARKDGETELPDMVISGESTSATQPPGVTTLGKVPLKPRELPQSASVIDHERLEQQNLFSLDEAMQQATGVTVQPFQLLTTAYYVRGFKVDSFELDGVPALLGNTASSPQDMAIYERVEILRGSNGLLHGTGNPAATVNLVRKRPQREFAASTTLSAGRWDRYRAEVDVGGPLSASGNVRGRAVAAYEDRDYFYDVADQGTRLLYGVTEFDLSPDTLLTVGAQYQHIDSITNMAGVPMAKDGSNLGLSRDTYLDVDWDRFKWDTYRAFGSLEQQLGGGWKGKVSAEYQEADSRLRYAGSFGAIDPQTGDGGQLMGAAYKFKSIQRSLDANLNGPVRLFGLTHELLGGVTYAQGETRQDTARFLNLPNTPVNVYRWDPHGVPRPQIGQYTSPGTTTTTQKGLYALGRIKLAEPLTLVVGGRESWWDQDTPATRFKPGRQFTPYGGLIWDFARDWSWYVSYAEVYQPQADRQTWNSEPLSPVEGKTYETGIKGELADGRLNLSLAAFRIDLENNPQEDPDHPGPPNNPFYISGGKVRSQGFELEGTGYLTPYWSLSAGYTYTSTEYLKDSQNDSGTRYSTFTPRHLLRLWSNYDLPWQDRRWSVGGGLQAQSDYSVDYRGVSMRQGGYALVNMRLGYKIDEHWTAAVNVNNLFDRTYYQSLSNPNWNNRYGEPRSFNVSLRGAF
For B1, the binding result was “binds”.

B2: porin OprF (protein, UniProt P13794 25-350)
chain: QGQNSVEIEAFGKRYFTDSVRNMKNADLYGGSIGYFLTDDVELALSYGEYHDVRGTYETGNKKVHGNLTSLDAIYHFGTPGVGLRPYVSAGLAHQNITNINSDSQGRQQMTMANIGAGLKYYFTENFFAKASLDGQYGLEKRDNGHQGEWMAGLGVGFNFGGSKAAPAPEPVADVCSDSDNDGVCDNVDKCPDTPANVTVDANGCPAVAEVVRVQLDVKFDFDKSKVKENSYADIKNLADFMKQYPSTSTTVEGHTDSVGTDAYNQKLSERRANAVRDVLVNEYGVEGGRVNAVGYGESRPVADNATAEGRAINRRVEAEVEAEAK
Consider B2, for which the binding entry is “binds”.
